According to PMC11289641:
No constants are given. Whether binding was seen depends on the method and setting. For some of these results: Binding seen in cells or lysates may run through a third protein. Some binding calls cover weakened binding; strength is not graded here. Where a sequence is shown, tags or fusion partners need not be part of it. Each block holds one binder with its values, some of them ahead of it.

Tests used:
[1] = molecular target: T1, EVOLUTIONARILY CONSERVED C-TERMINAL REGION 8 (ECT8), yeast two-hybrid fusion (Arabidopsis thaliana) (UniProt Q9FPE7); assay: two-hybrid; GAL4 AD (pGADT7) and BD (pGBKT7) fusions cotransfected into yeast AH109; interactions evaluated on quadruple dropout medium YSD-Leu-Trp-Ade-His, 28 °C, 2 d
T1 sequence: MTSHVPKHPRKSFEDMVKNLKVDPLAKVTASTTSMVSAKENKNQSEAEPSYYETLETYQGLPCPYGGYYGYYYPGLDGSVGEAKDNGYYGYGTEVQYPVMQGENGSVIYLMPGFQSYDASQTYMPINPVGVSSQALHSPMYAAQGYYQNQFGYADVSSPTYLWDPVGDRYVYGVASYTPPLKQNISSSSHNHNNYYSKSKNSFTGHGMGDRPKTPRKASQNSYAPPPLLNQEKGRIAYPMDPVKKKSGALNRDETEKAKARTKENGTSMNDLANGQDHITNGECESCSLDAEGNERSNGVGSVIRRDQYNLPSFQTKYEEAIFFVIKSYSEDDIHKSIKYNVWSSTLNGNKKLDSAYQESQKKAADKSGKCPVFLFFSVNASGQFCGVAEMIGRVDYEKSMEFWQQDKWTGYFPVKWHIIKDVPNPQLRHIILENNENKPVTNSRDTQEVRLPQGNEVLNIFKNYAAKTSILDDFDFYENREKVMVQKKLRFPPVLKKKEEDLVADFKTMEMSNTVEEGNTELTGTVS

[2] = molecular target: T2, ECT8-NYFP (Arabidopsis thaliana) (UniProt Q9FPE7); assay: split reporter; BiFC with split YFP: ECT8-NYFP and DCP5-CYFP coinfiltrated (A. tumefaciens GV3101, p19) into 4-wk-old N. benthamiana leaves; confocal imaging after 24 to 48 h
T2 sequence: T1 sequence

B2: DCP5-CYFP (protein, UniProt Q9C658 1-611)
chain: MAADNTGSKSSSAADSYVGSLISLTSKSEIRYEGILYNINTDESSIGLQNVRSFGTEGRKKDGPQVPPSDKVYEYILFRGTDIKDLQVKASPPVQPPASTINNDPAIIQSHYPSPMPTSGSLPSTASGSLPDISSHNGQPGQHGMGFQNAMPLYQPGGNLGSWGASPQPPMYWQGFYTPPPNGLPQLHQQSLIRPPHGLPMPNSLQQPLQYPNFNTPPPPTGSSSLQGSSLPEAPSSLFPFSTSSQMLAPSSLPFPGLPPVTLSSSLQSTLQSAPSPSLASEMAPPLLSNKAPITAPPTLPQDTNLLSFSLSTTRATEASTGLPLSNKPSVVTGPISPPQTTPLTSAPVAGVSSSISQDKPKPLLVTPGQLLQSGSSAVSLSPPSTNADKDVEVVQVSSSAGLEQSVPVTSEAQPPILPLPSSARPTQKPNGHSFPNHNGYRGRGRGRGRGAGRSHQVMKFTEDFDFTAMNEKFNKDEVWGHLGKSTTLDGDEDDDSPTVDEAELPKIEAKPVYNKDDFFDSLSSNTIDRESQNSRPRFSEQRKLDTETFGEFSRFRGGRGGRGGYGRNNGYSRGGYGGRGYGGYGGRGGGGGGYGYGGRGQGRGVSNRTT
binding [2]: binds

B3: ARGONAUTE 1 (AGO1), yeast two-hybrid fusion (protein, UniProt O04379 1-1048)
chain: MVRKRRTDAPSEGGEGSGSREAGPVSGGGRGSQRGGFQQGGGQHQGGRGYTPQPQQGGRGGRGYGQPPQQQQQYGGPQEYQGRGRGGPPHQGGRGGYGGGRGGGPSSGPPQRQSVPELHQATSPTYQAVSSQPTLSEVSPTQVPEPTVLAQQFEQLSVEQGAPSQAIQPIPSSSKAFKFPMRPGKGQSGKRCIVKANHFFAELPDKDLHHYDVTITPEVTSRGVNRAVMKQLVDNYRDSHLGSRLPAYDGRKSLYTAGPLPFNSKEFRINLLDEEVGAGGQRREREFKVVIKLVARADLHHLGMFLEGKQSDAPQEALQVLDIVLRELPTSRYIPVGRSFYSPDIGKKQSLGDGLESWRGFYQSIRPTQMGLSLNIDMSSTAFIEANPVIQFVCDLLNRDISSRPLSDADRVKIKKALRGVKVEVTHRGNMRRKYRISGLTAVATRELTFPVDERNTQKSVVEYFHETYGFRIQHTQLPCLQVGNSNRPNYLPMEVCKIVEGQRYSKRLNERQITALLKVTCQRPIDREKDILQTVQLNDYAKDNYAQEFGIKISTSLASVEARILPPPWLKYHESGREGTCLPQVGQWNMMNKKMINGGTVNNWICINFSRQVQDNLARTFCQELAQMCYVSGMAFNPEPVLPPVSARPEQVEKVLKTRYHDATSKLSQGKEIDLLIVILPDNNGSLYGDLKRICETELGIVSQCCLTKHVFKMSKQYMANVALKINVKVGGRNTVLVDALSRRIPLVSDRPTIIFGADVTHPHPGEDSSPSIAAVVASQDWPEITKYAGLVCAQAHRQELIQDLFKEWKDPQKGVVTGGMIKELLIAFRRSTGHKPLRIIFYRDGVSEGQFYQVLLYELDAIRKACASLEAGYQPPVTFVVVQKRHHTRLFAQNHNDRHSVDRSGNILPGTVVDSKICHPTEFDFYLCSHAGIQGTSRPAHYHVLWDENNFTADGLQSLTNNLCYTYARCTRSVSIVPPAYYAHLAAFRARFYMEPETSDSGSMASGSMARGGGMAGRSTRGPNVNAAVRPLPALKENVKRVMFYC
binding [1]: no binding

Results, then the binder that gave them:

binding [1]: binds
B1: … 5 (DCP5), yeast two-hybrid fusion (protein, UniProt Q9C658 1-611)
chain: B2 chain

binding [1]: binds
B4: VARICOSE (VCS), yeast two-hybrid fusion (protein, UniProt Q9LTT8 1-1344)
chain: MASSPGNTNPHNTPPFDLGILFKPSSNPYPPPAASYPPPTGPFLHNQYDQQHYAPPGISAQPSPVTQQQQDVSSSSAATNLHPQRTLSYPTPPLNLQSPRSNHNPGTHILALLNNTNNGAPVANQEPSHQLPVVNHNEIARSFPGGSGPIRVPSCKLPKGRRLIGEHAVYDVDVRLQGEIQPQLEVTPITKYGSDPQLVVGRQIAVNKVYICYGLKGGNIRVLNINTALRSLFRGHSQRVTDMAFFAEDVDMLASVSLDGKVFVWKISEGSEGEDQPQITGKIVLALQILGEEDTKHPRVCWHCHKQEILVVSIGKHVLRIDTTKVGRGEVFSAEAPLQCPLDKLIDGVQIVGKHDGEVTDLSMCQWMTTRLVSSSVDGTIKIWQDRKAQPLVVLRPHDGHPVSSATFVTSPERPDHIILITGGPLNREMKIWVSAGEEGWLLPADAESWRCTQTLDLKSSTEPRAEEAFFNQVIALSEAGLLLLANAKRNALYAVHLDYGSSPVGTRMDYLSEFTVTMPILSFIGTNDPPEEPIVKVYCVQTLAIQQYTLDLCLCLPPPIENMGLEKSDSSVSREANLVEGMSEPSGLKPTDLPSVDSVPKPSIIVNRSESANKLSFPSAEATSQAIVPPNGEPKTSGLPSQTSGAGSAYATLPQLPLSPRLSSKLSGYHTPVEAIEPVIPHHELGGKTPSADYSVDRQMDAVGERNLDVSSVEEISRSKDSNVTPDDDVSGMRSPSAFFKHPTHLVTPSEILMGVSSAEASITTEDRRDRDANIQDVNNDPRDTEVEVKEISEARSTQNGEINDHDETENCTSENREKVFCSQVSNLSTEMARDCYPSTEGTFIPGESKAYGQPIKAGDESGVDSRGGPAKLLKGKKQKAKNSQGPGLSSTSSNVANLADSFNEQSQSLSHPMTDLLPQLLAMQETMNQVMASQKEMQRQLSNAATGPIGKESKRLEVALGRMIEKSSKSNADALWARIQEETVKNEKALRDHAQQIVNATTNFMSKELNAMFEKTIKKELAAIGPALARSVVPVIEKTVSSAITESFQRGIGDKAVNQLDKSVNIKLEATVARQIQAQFQTSGKQALQEGLRSSVESSVIPSFEKACKAMFDQIDSAFQKGIAEHTNAAQQRFDSGHSQLAHTLKESITSASSVAQALSRELAETQRNLLALAAAGANSGGSNSLVTQLSGGPLGALLEKVEAPMDPTTELSRLISERKYEESFTSALQRSDVSIVSWLCSQVDLRGLLAMNPLPLSQGVLLSLLQQLACDISKDTSRKLAWMTDVVAAINPSDQMIAVHARPIFEQVYQILHHHRNAPGSDVSAIRLIMHVINSMLMGCK
